# Measured values reported in the supplement of paper PMC6411743.
# By UniProt entry, the sequences of proteins in these tests, tags left out. Where a name states a change or a piece, a line headed by the entry shows the natural chain unless it says otherwise.
# UniProt P33240: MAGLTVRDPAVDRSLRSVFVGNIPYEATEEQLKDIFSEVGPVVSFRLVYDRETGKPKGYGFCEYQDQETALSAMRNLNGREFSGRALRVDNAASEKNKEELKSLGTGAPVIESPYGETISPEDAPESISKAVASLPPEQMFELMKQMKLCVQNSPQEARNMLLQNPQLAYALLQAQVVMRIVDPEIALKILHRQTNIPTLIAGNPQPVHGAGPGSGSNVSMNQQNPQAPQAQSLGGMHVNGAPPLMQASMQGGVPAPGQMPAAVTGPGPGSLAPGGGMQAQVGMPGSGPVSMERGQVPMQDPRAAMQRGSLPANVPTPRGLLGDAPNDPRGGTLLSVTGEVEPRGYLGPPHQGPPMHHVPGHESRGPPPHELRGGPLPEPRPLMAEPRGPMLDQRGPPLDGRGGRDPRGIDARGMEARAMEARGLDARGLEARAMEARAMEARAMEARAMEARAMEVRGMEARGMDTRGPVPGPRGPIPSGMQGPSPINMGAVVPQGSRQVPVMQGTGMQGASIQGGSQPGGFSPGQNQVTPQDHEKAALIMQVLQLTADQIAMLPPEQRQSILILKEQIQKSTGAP
# UniProt P29401: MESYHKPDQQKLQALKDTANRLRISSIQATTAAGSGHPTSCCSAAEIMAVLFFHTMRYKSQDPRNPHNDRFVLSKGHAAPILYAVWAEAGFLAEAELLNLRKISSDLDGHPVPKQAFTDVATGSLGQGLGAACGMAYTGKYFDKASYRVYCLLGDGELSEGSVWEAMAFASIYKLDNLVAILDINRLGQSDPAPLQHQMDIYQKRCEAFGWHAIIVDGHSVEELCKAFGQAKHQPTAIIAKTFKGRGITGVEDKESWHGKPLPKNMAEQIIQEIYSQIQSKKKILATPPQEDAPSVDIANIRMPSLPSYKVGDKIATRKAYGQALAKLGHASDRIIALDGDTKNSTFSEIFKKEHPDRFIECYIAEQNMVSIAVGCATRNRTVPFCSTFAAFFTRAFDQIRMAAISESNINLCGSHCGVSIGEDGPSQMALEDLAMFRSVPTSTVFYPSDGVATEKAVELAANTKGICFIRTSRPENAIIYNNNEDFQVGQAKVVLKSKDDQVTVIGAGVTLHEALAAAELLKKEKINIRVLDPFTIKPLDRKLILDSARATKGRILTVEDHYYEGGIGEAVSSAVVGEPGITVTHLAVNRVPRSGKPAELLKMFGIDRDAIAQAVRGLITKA
# UniProt Q53H96: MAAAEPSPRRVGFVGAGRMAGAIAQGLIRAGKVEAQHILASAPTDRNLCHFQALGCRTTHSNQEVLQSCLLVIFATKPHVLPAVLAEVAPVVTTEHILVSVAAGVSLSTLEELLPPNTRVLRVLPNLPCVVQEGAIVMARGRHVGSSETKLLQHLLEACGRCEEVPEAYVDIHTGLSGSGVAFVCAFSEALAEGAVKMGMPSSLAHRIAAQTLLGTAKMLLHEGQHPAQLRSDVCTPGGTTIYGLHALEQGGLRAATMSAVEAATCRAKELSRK
# UniProt P0DMV9, whole entry, looked up: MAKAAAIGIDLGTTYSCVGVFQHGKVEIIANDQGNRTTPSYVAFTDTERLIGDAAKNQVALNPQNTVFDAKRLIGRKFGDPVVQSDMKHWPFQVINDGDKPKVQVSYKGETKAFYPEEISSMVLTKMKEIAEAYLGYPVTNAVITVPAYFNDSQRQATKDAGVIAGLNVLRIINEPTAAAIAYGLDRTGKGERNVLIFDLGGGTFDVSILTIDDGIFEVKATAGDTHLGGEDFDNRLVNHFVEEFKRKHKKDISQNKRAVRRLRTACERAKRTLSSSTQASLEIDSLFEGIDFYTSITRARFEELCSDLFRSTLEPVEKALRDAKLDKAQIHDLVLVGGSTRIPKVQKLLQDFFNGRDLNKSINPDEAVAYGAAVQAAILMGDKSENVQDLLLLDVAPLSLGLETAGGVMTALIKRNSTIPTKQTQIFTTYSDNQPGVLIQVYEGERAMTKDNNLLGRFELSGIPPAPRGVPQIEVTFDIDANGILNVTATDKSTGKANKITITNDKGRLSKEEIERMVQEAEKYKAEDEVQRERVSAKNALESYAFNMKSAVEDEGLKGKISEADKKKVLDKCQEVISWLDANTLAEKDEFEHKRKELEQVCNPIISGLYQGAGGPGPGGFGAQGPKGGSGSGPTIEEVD
# UniProt Q7Z6Z7, whole entry: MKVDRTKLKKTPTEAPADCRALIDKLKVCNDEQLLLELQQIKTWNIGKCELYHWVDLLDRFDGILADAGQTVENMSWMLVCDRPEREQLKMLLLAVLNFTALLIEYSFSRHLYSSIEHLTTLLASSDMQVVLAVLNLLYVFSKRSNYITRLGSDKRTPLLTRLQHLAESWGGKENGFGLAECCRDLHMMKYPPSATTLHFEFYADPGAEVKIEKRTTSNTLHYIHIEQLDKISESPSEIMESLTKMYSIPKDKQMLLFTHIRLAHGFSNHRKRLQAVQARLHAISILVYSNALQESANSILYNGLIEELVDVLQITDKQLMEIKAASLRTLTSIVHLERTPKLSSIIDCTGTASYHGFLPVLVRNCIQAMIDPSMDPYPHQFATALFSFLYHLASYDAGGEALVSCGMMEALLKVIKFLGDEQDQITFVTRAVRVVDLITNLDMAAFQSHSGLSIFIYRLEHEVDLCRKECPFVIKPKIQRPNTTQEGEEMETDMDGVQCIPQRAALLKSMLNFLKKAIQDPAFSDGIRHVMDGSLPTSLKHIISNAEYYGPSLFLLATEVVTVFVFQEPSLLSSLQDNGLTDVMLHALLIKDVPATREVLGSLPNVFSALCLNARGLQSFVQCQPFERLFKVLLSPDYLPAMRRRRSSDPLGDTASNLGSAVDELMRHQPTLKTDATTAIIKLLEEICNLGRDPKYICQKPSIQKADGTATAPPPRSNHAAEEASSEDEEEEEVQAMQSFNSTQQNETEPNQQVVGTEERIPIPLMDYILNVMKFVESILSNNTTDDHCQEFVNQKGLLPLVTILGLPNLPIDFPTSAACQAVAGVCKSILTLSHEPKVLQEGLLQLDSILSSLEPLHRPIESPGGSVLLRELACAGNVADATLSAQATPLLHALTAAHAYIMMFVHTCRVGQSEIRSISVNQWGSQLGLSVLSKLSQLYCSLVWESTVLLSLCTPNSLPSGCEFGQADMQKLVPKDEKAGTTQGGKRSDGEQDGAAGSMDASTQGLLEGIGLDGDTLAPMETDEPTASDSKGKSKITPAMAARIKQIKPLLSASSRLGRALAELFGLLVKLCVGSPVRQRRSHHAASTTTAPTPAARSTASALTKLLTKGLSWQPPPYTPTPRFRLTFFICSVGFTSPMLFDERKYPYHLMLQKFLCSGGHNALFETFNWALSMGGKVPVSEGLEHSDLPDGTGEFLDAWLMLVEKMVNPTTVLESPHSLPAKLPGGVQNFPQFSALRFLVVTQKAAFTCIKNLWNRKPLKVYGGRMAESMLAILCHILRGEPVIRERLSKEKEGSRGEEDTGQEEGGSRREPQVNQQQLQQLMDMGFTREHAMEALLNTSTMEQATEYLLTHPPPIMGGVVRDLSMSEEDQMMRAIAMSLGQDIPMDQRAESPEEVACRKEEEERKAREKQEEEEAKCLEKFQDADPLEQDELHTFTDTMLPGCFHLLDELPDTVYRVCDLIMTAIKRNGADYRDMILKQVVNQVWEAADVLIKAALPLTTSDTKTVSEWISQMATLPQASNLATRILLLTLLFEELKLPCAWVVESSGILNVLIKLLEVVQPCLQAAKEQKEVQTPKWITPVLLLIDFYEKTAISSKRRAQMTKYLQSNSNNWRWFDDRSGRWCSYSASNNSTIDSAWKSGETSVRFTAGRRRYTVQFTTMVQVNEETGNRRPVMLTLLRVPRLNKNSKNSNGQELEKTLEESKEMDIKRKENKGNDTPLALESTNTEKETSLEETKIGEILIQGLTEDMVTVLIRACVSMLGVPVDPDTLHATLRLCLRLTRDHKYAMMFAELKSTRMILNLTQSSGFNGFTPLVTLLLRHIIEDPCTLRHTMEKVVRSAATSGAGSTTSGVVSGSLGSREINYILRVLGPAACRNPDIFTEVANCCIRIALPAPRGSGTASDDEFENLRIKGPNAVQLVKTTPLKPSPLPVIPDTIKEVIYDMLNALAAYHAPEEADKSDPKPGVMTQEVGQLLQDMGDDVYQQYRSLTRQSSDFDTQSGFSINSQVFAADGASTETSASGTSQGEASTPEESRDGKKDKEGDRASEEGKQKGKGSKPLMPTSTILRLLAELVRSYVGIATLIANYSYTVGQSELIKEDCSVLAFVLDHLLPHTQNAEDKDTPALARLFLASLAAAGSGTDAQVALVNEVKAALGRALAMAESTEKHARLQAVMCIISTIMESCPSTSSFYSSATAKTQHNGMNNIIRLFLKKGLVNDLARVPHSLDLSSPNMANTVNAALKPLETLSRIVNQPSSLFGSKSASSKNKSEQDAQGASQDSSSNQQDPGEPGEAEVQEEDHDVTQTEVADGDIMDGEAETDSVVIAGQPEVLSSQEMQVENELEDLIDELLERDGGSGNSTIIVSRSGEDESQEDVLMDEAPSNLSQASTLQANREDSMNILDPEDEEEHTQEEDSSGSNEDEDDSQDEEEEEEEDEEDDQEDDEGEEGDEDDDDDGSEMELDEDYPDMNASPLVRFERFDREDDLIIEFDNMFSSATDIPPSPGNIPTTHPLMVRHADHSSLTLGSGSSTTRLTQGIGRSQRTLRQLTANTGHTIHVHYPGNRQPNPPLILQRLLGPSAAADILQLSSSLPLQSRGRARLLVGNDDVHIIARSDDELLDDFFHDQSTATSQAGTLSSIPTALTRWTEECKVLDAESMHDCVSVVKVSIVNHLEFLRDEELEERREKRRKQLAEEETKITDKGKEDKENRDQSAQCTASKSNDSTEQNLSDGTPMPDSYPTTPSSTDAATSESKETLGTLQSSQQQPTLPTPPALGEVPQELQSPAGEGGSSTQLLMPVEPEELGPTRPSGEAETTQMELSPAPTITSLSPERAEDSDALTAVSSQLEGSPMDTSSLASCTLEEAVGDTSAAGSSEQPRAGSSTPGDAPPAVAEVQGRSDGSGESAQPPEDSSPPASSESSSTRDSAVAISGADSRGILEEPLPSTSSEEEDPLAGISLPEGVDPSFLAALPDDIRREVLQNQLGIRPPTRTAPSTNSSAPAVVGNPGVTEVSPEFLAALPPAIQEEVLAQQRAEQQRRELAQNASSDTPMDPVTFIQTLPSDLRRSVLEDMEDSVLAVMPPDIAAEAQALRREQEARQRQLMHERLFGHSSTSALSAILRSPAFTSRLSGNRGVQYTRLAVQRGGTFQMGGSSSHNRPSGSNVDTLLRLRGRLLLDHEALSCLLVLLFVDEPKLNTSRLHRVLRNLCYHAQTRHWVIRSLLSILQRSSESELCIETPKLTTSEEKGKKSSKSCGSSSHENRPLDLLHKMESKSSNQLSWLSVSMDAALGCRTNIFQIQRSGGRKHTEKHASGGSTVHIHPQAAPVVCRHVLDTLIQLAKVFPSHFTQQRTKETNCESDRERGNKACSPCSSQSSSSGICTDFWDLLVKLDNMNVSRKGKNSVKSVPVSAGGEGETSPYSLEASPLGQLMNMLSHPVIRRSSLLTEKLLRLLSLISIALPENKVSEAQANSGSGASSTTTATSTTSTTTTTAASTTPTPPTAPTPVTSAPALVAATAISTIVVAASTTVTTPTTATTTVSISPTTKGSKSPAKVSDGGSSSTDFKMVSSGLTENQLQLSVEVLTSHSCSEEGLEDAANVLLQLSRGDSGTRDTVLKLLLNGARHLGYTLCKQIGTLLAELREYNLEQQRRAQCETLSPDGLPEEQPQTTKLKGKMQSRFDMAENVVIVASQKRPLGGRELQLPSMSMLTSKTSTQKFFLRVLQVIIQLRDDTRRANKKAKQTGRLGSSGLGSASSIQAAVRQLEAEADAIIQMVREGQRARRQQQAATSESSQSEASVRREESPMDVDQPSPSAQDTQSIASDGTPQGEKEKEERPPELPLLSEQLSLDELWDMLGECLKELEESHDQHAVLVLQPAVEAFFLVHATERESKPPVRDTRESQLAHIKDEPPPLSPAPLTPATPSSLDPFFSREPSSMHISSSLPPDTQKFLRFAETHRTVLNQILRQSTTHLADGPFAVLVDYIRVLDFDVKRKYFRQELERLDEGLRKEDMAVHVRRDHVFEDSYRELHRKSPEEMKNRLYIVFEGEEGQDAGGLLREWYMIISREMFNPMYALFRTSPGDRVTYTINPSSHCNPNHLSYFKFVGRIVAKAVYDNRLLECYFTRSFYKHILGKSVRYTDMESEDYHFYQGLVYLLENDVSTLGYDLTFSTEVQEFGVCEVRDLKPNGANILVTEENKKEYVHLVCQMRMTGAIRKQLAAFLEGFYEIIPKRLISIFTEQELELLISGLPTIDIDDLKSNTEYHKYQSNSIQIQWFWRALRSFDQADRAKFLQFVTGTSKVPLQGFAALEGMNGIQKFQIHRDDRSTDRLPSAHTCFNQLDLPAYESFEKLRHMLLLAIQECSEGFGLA
# ± gives the standard deviation of the averaged measurements. The list shows a part of the results.
# Compound: Nc1nc2c(ncn2[C@@H]2O[C@H](COP(=O)(O)OP(=O)(O)OP(=O)(O)O)[C@@H](O)[C@H]2O)c(=O)[nH]1 [guanosine triphosphate]
# Test: NP40-soluble protein abundance relative to vehicle (solubility fold change) (ratio); higher = more soluble protein in presence of GTP
# Procedure, shortened: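 Eight concentrations, 0.1 to 10 mM, were tested on Jurkat crude lysate for 10 min at room temperature and then 3 min at 37 °C, in three independent experiments. The lysate was solubilised with 0.8% NP40 and benzonase, ultracentrifuged, and the supernatant TMT-labelled for LC-MS/MS. Each value is the fold change against the detergent-processed vehicle in its own replicate, from vsn-normalised intensities.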
Target,NP40-soluble protein abundance (concentration: 0.1mM),NP40-soluble protein abundance (concentration: 0.5mM),NP40-soluble protein abundance (concentration: 1mM),NP40-soluble protein abundance (concentration: 2mM),NP40-soluble protein abundance (concentration: 4mM),NP40-soluble protein abundance (concentration: 6mM),NP40-soluble protein abundance (concentration: 8mM),NP40-soluble protein abundance (concentration: 10mM)
A0A087WXI1|Q6NVY1 (UniProt Q6NVY1),0.948 ± 0.045,0.945 ± 0.042,0.909 ± 0.082,0.875 ± 0.083,0.863 ± 0.087,0.867 ± 0.092,0.861 ± 0.096,0.841 ± 0.096
A0A0B4J2C3|P13693 and related entries (UniProt P13693),0.938 ± 0.073,0.961 ± 0.039,0.928 ± 0.067,0.905 ± 0.035,0.882 ± 0.074,0.905 ± 0.047,0.864 ± 0.086,0.871 ± 0.062
A0A0A0MT83|P26440 (UniProt P26440),1.04 ± 0.025,1.04 ± 0.052,0.971 ± 0.025,0.968 ± 0.04,0.945 ± 0.06,0.947 ± 0.035,0.926 ± 0.0057,0.904 ± 0.033
A0A0A0MT56|P33240 and related entries (UniProt P33240),0.965 ± 0.022,0.908 ± 0.038,0.994 ± 0.015,1 ± 0.034,1 ± 0.039,1 ± 0.039,1.076 ± 0.0043,1.07 ± 0.059
SH3PXD2B (UniProt A1X283),1.02 ± 0.062,1.01 ± 0.052,1.05 ± 0.036,1 ± 0.07,0.941 ± 0.079,1.01 ± 0.064,0.99 ± 0.058,1.01 ± 0.1
A0A0B4J220 (UniProt E9PRG8),1.02 ± 0.041,0.975 ± 0.021,1.05 ± 0.045,1.16 ± 0.013,1.36 ± 0.019,1.35 ± 0.021,1.15 ± 0.092,1.63 ± 0.13
A0A0J9YXZ6|Q4VXZ8 and related entries (UniProt Q9NUI1),1.03 ± 0.018,1.035 ± 0.0051,1.05 ± 0.013,1.06 ± 0.024,1.063 ± 0.0061,1.05 ± 0.041,1.059 ± 0.01,1.054 ± 0.0072
A2IDA3 and related entries (UniProt P29372),1.01 ± 0.08,1.04 ± 0.16,1.1 ± 0.13,1.14 ± 0.16,1.16 ± 0.1,1.28 ± 0.18,1.33 ± 0.067,1.37 ± 0.15
A0A087WYW3|P30414 (UniProt P30414),1.15 ± 0.012,1.26 ± 0.047,1.41 ± 0.11,1.44 ± 0.16,1.42 ± 0.17,1.43 ± 0.19,1.53 ± 0.24,1.42 ± 0.3
A6NCE7 and related entries (UniProt Q9GZQ8+H3BTL1+A6NCE7),0.996 ± 0.022,1.02 ± 0.062,0.976 ± 0.053,0.917 ± 0.073,0.894 ± 0.078,0.926 ± 0.094,0.918 ± 0.072,0.901 ± 0.088
A0A0A0MSF9|Q8N954 (UniProt Q8N954),0.954 ± 0.04,0.893 ± 0.048,1.01 ± 0.017,1.07 ± 0.044,1.18 ± 0.062,1.2 ± 0.039,1.24 ± 0.13,1.31 ± 0.14
A0A0C4DGG9|F5GWX5 and related entries (UniProt Q14839),1.01 ± 0.034,1.06 ± 0.06,1.08 ± 0.074,1.12 ± 0.1,1.14 ± 0.11,1.13 ± 0.11,1.18 ± 0.15,1.15 ± 0.14
A0A0B4J1R6|P29401 and related entries (UniProt P29401),0.962 ± 0.022,0.99 ± 0.031,0.922 ± 0.023,0.909 ± 0.0056,0.899 ± 0.013,0.9049 ± 0.0065,0.869 ± 0.033,0.863 ± 0.033
A0A0U1RQQ9|Q6P3W7 (UniProt Q6P3W7),1.03 ± 0.011,1.01 ± 0.022,1.006 ± 0.0076,0.955 ± 0.029,0.953 ± 0.058,0.952 ± 0.016,0.9734 ± 0.0085,0.943 ± 0.04
A0A0A0MQS1|Q53H96 and related entries (UniProt Q53H96),1.08 ± 0.071,1.07 ± 0.077,1.19 ± 0.11,1.2 ± 0.072,1.2 ± 0.074,1.21 ± 0.079,1.22 ± 0.065,1.17 ± 0.06
A0A0G2JIW1|P0DMV8 and related entries (UniProt P0DMV9+P0DMV8),0.962 ± 0.063,0.972 ± 0.068,0.968 ± 0.081,0.948 ± 0.08,0.948 ± 0.075,0.942 ± 0.052,0.969 ± 0.081,0.951 ± 0.072
A0A0A0MTH3|Q13418 (UniProt Q13418),1 ± 0.025,0.989 ± 0.044,0.946 ± 0.024,0.94 ± 0.045,0.946 ± 0.043,0.93 ± 0.043,0.915 ± 0.02,0.883 ± 0.037
A0A087X1S3|Q7Z6Z7-2|Q7Z6Z7 (UniProt Q7Z6Z7),1.03 ± 0.015,1.05 ± 0.011,1.02 ± 0.018,1.04 ± 0.026,1.04 ± 0.028,1.03 ± 0.048,1.04 ± 0.056,1.02 ± 0.037
A0A0A0MRF6|Q99996 and related entries (UniProt Q99996),1.03 ± 0.014,1.05 ± 0.017,1.08 ± 0.049,1.1 ± 0.056,1.15 ± 0.09,1.14 ± 0.095,1.18 ± 0.14,1.12 ± 0.13
A0A096LP25|Q2M2I8 and related entries (UniProt Q2M2I8),0.972 ± 0.054,1 ± 0.071,1 ± 0.066,0.974 ± 0.099,0.968 ± 0.078,0.961 ± 0.077,0.985 ± 0.058,0.98 ± 0.074
A0A0G2JHC2|Q6NYC8 (UniProt Q6NYC8),0.952 ± 0.042,0.945 ± 0.047,1 ± 0.044,1 ± 0.08,1 ± 0.064,1.07 ± 0.092,1.13 ± 0.029,1.14 ± 0.064
A0A087X176|Q6ZRP7 (UniProt Q6ZRP7),0.955 ± 0.015,0.918 ± 0.032,0.947 ± 0.041,0.94 ± 0.035,0.982 ± 0.034,0.955 ± 0.03,0.923 ± 0.067,0.945 ± 0.028
A0A0A0MSK6|Q13017 and related entries (UniProt Q13017),1.01 ± 0.028,1.04 ± 0.033,1.01 ± 0.076,0.99 ± 0.093,0.99 ± 0.052,0.997 ± 0.085,0.998 ± 0.078,0.979 ± 0.085
A0A0A0MR05|H3BSZ4 and related entries (UniProt Q9BVC4),1.08 ± 0.025,1.154 ± 0.0087,1.09 ± 0.024,1.079 ± 0.0098,1.09 ± 0.0077,1.074 ± 0.0029,1.13 ± 0.098,1.12 ± 0.029
